Measurements as given in patent US20210101970A1.
Results are given in words; binding and its absence hold for the method and conditions named. For some assays here: Binding can be weak; no strength is given. Blank lines part the entries; values can stand above or below the binder they belong to.

Legend:
XC252 = assay: FACS on cells expressing the CXCR5 construct
XC251 = assay: FACS on cells expressing the CXCR5 construct
XC254 = assay: FACS on cells expressing the CXCR5 construct
Insulin = assay: DELFIA polyreactivity plate assay

binding (XC252): binds
binding (XC251): binds
binding (XC254): binds
B1: 16D7 (reference antibody) (antibody, human IgG1, kappa, V domains shown)
VH: QVQLKESGPGLVAPSESLSITCTVSGFSLIDYGVNWIRQPPGKGLEWLGVIWGDGTTYYNPSLKSRLSISKDNSKSQVFLKVTSLTTDDTAMYYCARIVYWGQGTLVTVSA
VL: DIVMTQAAPSVAVTPGASVSISCRSSKSLLHSSGKTYLYWFLQRPGQSPQLLIYRLSSLASGVPDRFSGSGSGTAFTLRISRVEAEDVGVYYCMQHLEYPYTFGGGTKLEIKR

binding (XC252): binds
binding (XC251): binds
binding (XC254): binds
binding (Insulin): no binding
B2: Afucosyl humanized 11G2 154/155 (antibody, human IgG1, kappa, V domains shown)
VH: EVQLVESGGGLVQPGGSLRLSCAASGFTFTDFYMSWVRQAPGKGLEWVGFIRNKANGYTTEYSASVKGRFTISRDNAKNSLYLQMNSLRAEDTAVYYCARVYGSTLHYWGQGTLVTVSS
VL: DIQMTQSPSSLSASVGDRVTITCRASESVEYHGTSLMHWYQQKPGKAPKLLIYAASNVESGVPSRFSGSGSGTDFTLTISSLQPEDFATYYCQQSRKVPWTFGQGTKVEIKR
modifications: afucosylated Fc glycan (Asn297)

binding (Insulin): no binding (tested: 100 nM)
B3: Humanized 11G2 154/155 (antibody, human IgG1, kappa, V domains shown)
VH: B2 VH
VL: B2 VL
